In publication PMC8484013 one finds binding data, which are given here for one substance.

Sequences of proteins named here, by UniProt entry; tags and fusion partners are left off.
UniProt Q8WVD5: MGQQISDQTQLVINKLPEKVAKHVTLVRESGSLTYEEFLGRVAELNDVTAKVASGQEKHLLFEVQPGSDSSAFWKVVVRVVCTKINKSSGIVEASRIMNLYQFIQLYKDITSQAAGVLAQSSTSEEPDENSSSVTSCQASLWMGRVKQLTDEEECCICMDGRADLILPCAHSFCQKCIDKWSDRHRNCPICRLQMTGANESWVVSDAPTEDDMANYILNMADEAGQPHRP
UniProt O75608: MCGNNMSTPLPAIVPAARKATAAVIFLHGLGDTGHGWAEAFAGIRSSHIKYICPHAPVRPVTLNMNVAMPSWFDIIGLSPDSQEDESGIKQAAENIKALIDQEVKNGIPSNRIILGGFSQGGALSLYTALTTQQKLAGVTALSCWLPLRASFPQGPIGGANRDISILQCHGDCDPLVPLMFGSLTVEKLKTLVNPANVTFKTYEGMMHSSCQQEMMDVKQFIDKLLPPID

Results are given in words; binding and its absence hold for the method and conditions named. In cells and extracts the contact can be indirect. A yes stands for co-enrichment or nearness to the bait. Other partners may have been found.

In the test the target is RNF141 (RING finger protein 141) in colorectal cancer cells (human (endogenous in HCT116 and other CRC cell lines)) (UniProt Q8WVD5). Kind of test: affinity purification with mass spectrometry; IP of RNF141 combined with LC-MS/MS from HCT116 cells transfected with LV-NC or LV-RNF141.

As for “LYPLA1 (Lysophospholipase1), also known as APT1 (acyl-protein thioesterase 1) (from UniProt O75608 1-230) (enzyme)”, the binding entry was “binds”.
